From paper PMC7089538, “The effects of intra-stomach obestatin administration on intestinal contractility in neonatal piglets fed milk formula” (PLoS ONE, 2020)
Where no end group is shown, it is not given here.

Tests used:
M1 receptor = test: Immunoblotting of muscarinic ACh receptor expression in middle jejunum; type: in vivo, piglets (Polish Landrace x Pietrain); details: 6 days, Western blot (Fig 4)
M2 receptor = test: as above; type: in vivo, piglets (Polish Landrace x Pietrain); details: 6 days, Western blot (Fig 4)
[1] = O2: obestatin 2 μg/kg BW intra-stomach every 8 h
[2] = O10: obestatin 10 μg/kg BW intra-stomach every 8 h
[3] = O15: obestatin 15 μg/kg BW intra-stomach every 8 h

## FNAPFDVGIKLSGAQYQQHGRAL-NH2 [obestatin]
M1 receptor; [1]
  cytoplasmic expression of M1 receptor (IOD, b-actin ratio): significantly increased
M1 receptor; [2]
  cytoplasmic expression of M1 receptor (IOD, b-actin ratio): significantly increased
M1 receptor; [3]
  cytoplasmic expression of M1 receptor (IOD, b-actin ratio): no significant effect
M2 receptor; [1]
  cytoplasmic expression of M2 receptor (IOD, b-actin ratio): significantly increased
M2 receptor; [2]
  cytoplasmic expression of M2 receptor (IOD, b-actin ratio): significantly increased
M2 receptor; [3]
  cytoplasmic expression of M2 receptor (IOD, b-actin ratio): no significant effect
